Our source for the binding values is paper doi:10.1101/591909.

Chains of the proteins cited; added tags and fusions are not shown. Residues count along the entry.
UniProt P84091: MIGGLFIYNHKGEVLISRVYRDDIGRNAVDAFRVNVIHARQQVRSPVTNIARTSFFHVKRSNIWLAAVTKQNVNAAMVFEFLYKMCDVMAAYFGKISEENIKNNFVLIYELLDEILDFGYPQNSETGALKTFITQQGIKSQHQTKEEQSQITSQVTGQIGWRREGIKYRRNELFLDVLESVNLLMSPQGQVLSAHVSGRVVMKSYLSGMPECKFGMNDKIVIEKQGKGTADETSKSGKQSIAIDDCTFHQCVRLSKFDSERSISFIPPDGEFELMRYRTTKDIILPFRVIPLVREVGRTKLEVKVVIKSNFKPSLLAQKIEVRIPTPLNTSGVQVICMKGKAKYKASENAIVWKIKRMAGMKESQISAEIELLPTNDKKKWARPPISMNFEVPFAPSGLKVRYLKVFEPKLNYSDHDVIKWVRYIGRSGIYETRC
UniProt P15209, residues 32-821: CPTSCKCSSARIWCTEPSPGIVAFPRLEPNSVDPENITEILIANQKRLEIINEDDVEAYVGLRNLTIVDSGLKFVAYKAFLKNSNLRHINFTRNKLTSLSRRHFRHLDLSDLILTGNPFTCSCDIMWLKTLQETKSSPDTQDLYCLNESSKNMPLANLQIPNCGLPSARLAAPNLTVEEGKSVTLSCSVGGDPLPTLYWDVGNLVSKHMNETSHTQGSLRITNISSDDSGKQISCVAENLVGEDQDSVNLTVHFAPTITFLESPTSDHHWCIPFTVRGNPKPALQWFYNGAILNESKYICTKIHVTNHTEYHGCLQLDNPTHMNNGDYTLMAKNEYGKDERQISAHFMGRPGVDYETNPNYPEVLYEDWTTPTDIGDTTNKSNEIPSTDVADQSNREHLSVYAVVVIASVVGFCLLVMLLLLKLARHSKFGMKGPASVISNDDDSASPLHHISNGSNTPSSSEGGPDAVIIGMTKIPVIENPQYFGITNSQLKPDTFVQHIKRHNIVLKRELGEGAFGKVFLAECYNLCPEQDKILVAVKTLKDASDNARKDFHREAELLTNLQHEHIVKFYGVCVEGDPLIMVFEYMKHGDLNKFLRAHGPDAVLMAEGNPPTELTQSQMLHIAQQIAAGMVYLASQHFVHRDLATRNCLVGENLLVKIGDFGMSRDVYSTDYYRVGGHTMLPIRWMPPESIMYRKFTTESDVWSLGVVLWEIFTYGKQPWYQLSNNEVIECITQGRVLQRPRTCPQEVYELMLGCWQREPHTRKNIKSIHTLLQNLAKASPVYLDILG

No constants are given. Whether binding was seen depends on the method and setting. For some of these results: In cells and extracts the contact can be indirect. Some entries that bind do so weakly or less than the wild type.

In assay [1] the target is AP-2 complex subunit mu (AP2M), endogenous in MG87.TRKB cells (mouse (endogenous in MG87.TRKB 3T3 fibroblasts)) (UniProt P84091). Nature of the assay: ELISA. On the technique in general: In an ELISA, binding on a coated surface is turned into a signal by an enzyme label.
The target of assay [2] is AP-2 complex subunit mu (AP2M), endogenous in mouse hippocampus (mouse (endogenous in hippocampus)) (UniProt P84091). Nature of the assay: co-IP.

In the case of “TRKB C-terminal peptide, phosphorylated (last 26 amino acids of rat TRKB, pY816) (from UniProt Q63604 796-821)”, the binding entry in assay [1] is on record as “binds”.
Regarding “TRKB (tropomyosin-related kinase B), BDNF receptor, endogenous in mouse hippocampus (from UniProt P15209 32-821)”, the binding result in assay [2] is reported as “binds”.
For “TRKB C-terminal peptide, control (last 26 amino acids of rat TRKB) (from UniProt Q63604 796-821)”, the binding result in assay [1] was “binds”.
Same read-out and setting: under RKNIKNIHTLLQNLAKASPVALDILG (peptide, UniProt Q63604 796-821, biotin on the N-terminus) [TRKB C-terminal peptide, Y816A (last 26 amino acids of rat TRKB)] stands “binds”.
